According to patent US20220047530A1, “USE OF HORDENINE IN PREPARING DRUG FOR TREATING HYPOPHYSOMA” (Wuhan Third Hospital, priority 2019, published 2022):
For at least one compound, name, drawing or mass did not settle the structure.

System: TLR4/NF-κB/MAPK pathway
Test: Western blot of pituitary protein expression in rats with prolactinoma and adrenocorticotrophic hormone adenoma
Format: in vivo, F344 rats (Rattus norvegicus)
Conditions: once a day for 30 days by gavage; vs model group
Description: 70 rats of the prolactinoma and adrenocorticotrophic hormone adenoma model as established in Step 1.1 “Establishment of Rattus norvegicus pituitary tumor model” and normal rats of the control group are used as samples.
The 70 F344 rats are randomly divided into the normal group, operation group, model group, positive drug group (bromocriptine positive drug group), high-dose hordenine group, medium-dose hordenine group, and low-dose hordenine group, […]. Except rats in the normal group and the operation group, rats in the other groups are all made into rats with prolactinoma and adrenocorticotrophic hormone adenoma.
Rats in the positive drug group are given an aqueous bromocriptine solution by gavage at a dose of 0.45 mg/kg. Rats in the high-, medium- and low-dose groups of an aqueous solution of hordenine are given an aqueous solution of hordenine by oral gavage at a dose of 40 mg/kg, 20 mg/kg, and 10 mg/kg, respectively. Rats in the normal group and the model group are given the same dose of distilled water. The administration is performed once a day for 30 days, and during this period of time, the rats are weighed every five days and the changes in body weight are recorded.
Tissue extraction: The animals in each group are anesthetized, and the pituitary glands are removed as described in Section 2.2.2 of Part I, which are kept at −80° C. for later use.
The protein expression of TLR4/NF-κB/MAPK pathway in rats in the treatment groups after the administration of hordenine is determined by Western blotting detection. The effect of hordenine on the expression of various proteins in the pituitary glands of rats with prolactinoma and adrenocorticotrophic hormone adenoma as determined by Western blot detection on is shown in FIG. 16.

CC(C)C[C@H]1C(=O)N2CCC[C@H]2[C@]2(O)O[C@](NC(=O)[C@@H]3C=C4c5cccc6[nH]c(Br)c(c56)C[C@H]4N(C)C3)(C(C)C)C(=O)N12 [bromocriptine, reference compound]
significantly down-regulated: expression of MAPK12 in pituitary glands (Western blot) | expression of NF-kB protein in pituitary glands | expression of STAT3 protein in pituitary glands | expression of TLR4 in pituitary glands (Western blot) | expression of caspase-1 protein in pituitary glands
